Here are results for three molecules from patent US20190040142A1.

Amino acid sequences for entries named in this document (tags omitted). Residues count along the entry.
UniProt Q86Z14, residues 53-997: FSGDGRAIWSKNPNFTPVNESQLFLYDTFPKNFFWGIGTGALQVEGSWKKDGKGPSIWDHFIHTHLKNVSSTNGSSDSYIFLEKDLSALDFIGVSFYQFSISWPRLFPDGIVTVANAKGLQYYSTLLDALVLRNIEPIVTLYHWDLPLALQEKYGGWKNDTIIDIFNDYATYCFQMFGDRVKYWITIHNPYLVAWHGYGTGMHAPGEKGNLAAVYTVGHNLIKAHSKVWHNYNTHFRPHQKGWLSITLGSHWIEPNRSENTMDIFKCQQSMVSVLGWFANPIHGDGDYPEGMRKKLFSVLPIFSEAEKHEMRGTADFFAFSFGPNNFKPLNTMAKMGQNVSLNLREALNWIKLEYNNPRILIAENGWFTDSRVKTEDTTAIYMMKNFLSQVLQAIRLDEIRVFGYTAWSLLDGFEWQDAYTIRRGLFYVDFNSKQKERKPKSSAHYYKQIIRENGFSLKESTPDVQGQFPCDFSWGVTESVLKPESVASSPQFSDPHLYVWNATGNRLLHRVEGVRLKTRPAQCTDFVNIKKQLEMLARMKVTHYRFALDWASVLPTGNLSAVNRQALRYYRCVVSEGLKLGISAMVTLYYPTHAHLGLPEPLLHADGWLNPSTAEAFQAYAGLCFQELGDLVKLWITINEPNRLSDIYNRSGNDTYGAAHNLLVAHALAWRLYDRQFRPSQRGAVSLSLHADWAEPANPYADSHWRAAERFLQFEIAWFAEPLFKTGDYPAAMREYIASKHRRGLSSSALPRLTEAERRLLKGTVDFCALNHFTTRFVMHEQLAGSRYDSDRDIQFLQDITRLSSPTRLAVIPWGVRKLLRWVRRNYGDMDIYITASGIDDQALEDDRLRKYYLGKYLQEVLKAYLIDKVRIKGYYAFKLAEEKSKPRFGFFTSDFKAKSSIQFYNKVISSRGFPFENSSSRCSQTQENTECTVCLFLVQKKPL

Assay [1] has as its target recombinant human KLB (soluble protein) (human) (UniProt Q86Z14). The assay can be described thus: biolayer interferometry (Octet), anti-human Fc sensor -> human Ab1 -> hKLB protein -> mouse Ab2.
The target is the same in assay [2]. The assay can be described thus: biolayer interferometry, Octet Red384, sandwich epitope binning; reference antibody. For orientation: In BLI a coated tip is dipped into the sample, and binding shifts an interference pattern.
For assay [3] the target is unchanged. The assay can be described thus: biolayer interferometry, Octet Red384, sandwich epitope binning; test antibody.

Results are given in words; binding and its absence hold for the method and conditions named. Some binding calls cover weakened binding; strength is not graded here.

B1: anti-KLB monoclonal antibody 23B3 (antibody, V domains shown)
VH: EVQLQESGPGLVKPSQSLSLTCSVTGYSITSGYYWNWIRQFPGNKLEWMGYIRYDGNSNYNPFLKNRVSITRDTSKNQFFLKLNSVTTEDTATYYCTRKGAYYSSFDALDYWGQGTSVTVSS
VL: DIVMTQSPSSMYASLGERVTISCKASQDIRSYLSWFQQKPGKSPKTLIYRANRLVDGVPSRFSGSGSGQDYSLTITSLEFGDVGLYYCLQYDEFPLTFGAGTKLKIE
With B1, the binding result in assay [1] is given as “binds”.

B2: anti-KLB monoclonal antibody 28B7 (antibody, IgG1, V domains shown)
VH: EVQLQQSGPELVQPGTSVKISCEASGYTFTDYYINWVKQSRGKSLEWIGDINPNNGDTTYNQKFKAKATLTVDRSSNTAYMELRSLTSEDSVVYYCARRFYSSPFDSWGQGTTLTVSS
VL: DIVMTQSPSSLAVSVGEKVTLSCKSGQSLLYSRNQKNYLAWYQQKPGQSPKLLISWASTRESGVPDRFTGSGSGTDFTLTISSVKTEDLAVYHCQQYYSYPYTFGGGTRLEIK
Consider B2, for which the binding entry in assay [2] and in assay [1] was “binds” in each case.

B3: anti-KLB monoclonal antibody 2C12 (antibody, human IgG1, V domains shown)
VH: EVQLQQSGPGLVKPSQSLSLTCSVTGYSITSGYYWTWIRQFPGNKLEWMGYIKYDGGNYYNPSLRNRISITRDTSKNHFFLKFYSVTAEDTATYFCARGDYYASPYGAMDSWGQGTSVTVSS
VL: DIVMTQSPSSLSASLGDTITITCHASQDIDVWLSWYQQKPGNVPQLLISKSSILHTGVPSRFSGGGSGTGFTLTISSLQPEDIATYYCQQGLSYPFTFGSGTKLKIK
Consider B3, for which the binding entry in assay [3] and in assay [1] was “binds” each time.
